Measured values from paper PMC1626108.
Results are given in words; binding and its absence hold for the method and conditions named. Binding seen in cells or lysates may run through a third protein. For some assays here: Binding can be weak; no strength is given. For some assays here: Where a sequence is shown, tags or fusion partners need not be part of it.

Sequences of proteins named here, by UniProt entry; tags and fusion partners are left off.
UniProt Q9ERU9: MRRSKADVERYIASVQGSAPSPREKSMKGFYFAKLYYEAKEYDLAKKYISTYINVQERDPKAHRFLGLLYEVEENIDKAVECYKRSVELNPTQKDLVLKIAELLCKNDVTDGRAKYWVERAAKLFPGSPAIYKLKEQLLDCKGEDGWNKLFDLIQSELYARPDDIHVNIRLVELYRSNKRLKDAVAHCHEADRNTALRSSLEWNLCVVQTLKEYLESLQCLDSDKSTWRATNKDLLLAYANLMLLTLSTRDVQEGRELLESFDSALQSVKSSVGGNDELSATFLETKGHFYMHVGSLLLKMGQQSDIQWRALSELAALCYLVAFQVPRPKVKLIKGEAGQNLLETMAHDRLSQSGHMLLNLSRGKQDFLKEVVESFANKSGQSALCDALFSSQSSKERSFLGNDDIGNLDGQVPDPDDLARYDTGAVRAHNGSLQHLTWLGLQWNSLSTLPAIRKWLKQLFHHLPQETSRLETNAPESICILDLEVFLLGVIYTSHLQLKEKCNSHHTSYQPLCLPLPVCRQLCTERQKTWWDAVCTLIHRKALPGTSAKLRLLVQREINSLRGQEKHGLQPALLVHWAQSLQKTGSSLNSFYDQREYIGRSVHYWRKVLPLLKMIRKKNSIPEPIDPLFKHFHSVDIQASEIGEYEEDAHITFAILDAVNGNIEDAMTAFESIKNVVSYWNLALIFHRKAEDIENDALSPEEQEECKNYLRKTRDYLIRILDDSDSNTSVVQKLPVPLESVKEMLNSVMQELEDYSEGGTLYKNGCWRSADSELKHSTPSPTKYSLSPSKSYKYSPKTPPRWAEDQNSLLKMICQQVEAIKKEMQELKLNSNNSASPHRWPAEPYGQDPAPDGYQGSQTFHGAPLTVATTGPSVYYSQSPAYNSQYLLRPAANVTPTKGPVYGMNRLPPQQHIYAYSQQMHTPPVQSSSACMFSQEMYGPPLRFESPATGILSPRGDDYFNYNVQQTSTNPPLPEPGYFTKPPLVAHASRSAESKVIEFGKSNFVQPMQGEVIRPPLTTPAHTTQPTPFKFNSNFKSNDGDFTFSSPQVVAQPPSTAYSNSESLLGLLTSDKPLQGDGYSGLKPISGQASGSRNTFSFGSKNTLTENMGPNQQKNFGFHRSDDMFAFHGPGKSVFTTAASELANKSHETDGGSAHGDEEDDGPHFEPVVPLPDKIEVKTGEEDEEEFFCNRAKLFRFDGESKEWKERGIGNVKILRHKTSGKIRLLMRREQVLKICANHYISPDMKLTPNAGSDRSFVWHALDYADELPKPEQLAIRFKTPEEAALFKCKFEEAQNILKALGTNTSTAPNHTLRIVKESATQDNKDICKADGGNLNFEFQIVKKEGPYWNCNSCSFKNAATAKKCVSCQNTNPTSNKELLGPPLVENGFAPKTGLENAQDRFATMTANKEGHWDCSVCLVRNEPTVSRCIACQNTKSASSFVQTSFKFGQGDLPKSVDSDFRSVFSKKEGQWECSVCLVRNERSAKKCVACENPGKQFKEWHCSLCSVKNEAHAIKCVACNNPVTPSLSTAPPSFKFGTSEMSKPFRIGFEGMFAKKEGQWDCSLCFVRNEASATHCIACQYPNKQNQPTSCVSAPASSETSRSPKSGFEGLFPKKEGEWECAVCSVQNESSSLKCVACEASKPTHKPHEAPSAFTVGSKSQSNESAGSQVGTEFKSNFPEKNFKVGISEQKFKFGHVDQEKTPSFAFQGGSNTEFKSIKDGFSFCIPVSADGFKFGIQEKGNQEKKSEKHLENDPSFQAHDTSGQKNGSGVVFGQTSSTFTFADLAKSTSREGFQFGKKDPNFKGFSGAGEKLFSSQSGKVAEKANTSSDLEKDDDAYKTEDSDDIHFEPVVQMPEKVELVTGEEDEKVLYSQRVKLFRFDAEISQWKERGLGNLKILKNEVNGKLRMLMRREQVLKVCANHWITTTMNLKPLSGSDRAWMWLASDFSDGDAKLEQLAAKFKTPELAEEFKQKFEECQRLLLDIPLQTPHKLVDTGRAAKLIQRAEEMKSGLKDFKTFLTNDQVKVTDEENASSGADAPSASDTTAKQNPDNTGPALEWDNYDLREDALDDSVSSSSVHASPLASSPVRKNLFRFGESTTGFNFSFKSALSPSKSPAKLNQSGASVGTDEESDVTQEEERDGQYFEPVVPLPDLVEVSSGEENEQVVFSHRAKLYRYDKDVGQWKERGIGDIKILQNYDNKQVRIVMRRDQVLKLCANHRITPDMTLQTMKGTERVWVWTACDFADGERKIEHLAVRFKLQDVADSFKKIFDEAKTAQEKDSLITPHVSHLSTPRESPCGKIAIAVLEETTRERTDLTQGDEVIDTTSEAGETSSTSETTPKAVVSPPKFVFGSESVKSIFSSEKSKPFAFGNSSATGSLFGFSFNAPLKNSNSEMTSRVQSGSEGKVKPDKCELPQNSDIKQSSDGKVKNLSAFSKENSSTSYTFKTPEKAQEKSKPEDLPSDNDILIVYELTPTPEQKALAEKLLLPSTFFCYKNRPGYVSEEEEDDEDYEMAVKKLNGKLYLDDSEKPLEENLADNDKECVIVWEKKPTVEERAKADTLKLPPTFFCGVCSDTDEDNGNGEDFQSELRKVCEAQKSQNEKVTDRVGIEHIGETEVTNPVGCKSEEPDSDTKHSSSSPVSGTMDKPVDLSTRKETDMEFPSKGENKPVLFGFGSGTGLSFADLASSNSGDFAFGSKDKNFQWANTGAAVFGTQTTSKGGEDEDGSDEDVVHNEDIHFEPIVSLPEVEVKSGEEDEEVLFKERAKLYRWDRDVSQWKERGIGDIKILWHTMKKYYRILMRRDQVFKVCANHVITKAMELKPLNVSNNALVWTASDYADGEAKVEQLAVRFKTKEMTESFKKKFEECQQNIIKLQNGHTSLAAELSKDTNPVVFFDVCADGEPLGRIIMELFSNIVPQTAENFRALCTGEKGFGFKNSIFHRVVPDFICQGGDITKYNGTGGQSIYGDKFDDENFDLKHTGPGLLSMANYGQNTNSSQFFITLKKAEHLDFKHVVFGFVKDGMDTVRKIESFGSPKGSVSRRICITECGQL

What was measured:
[1] = molecular target: Ran-binding protein 2 (RanBP2), endogenous in retinal extracts (UniProt Q9ERU9); assay: co-IP; retinal extracts; immunoprecipitation with 5 ug of antibody against HKI, mHsp70, Cox11 or RanBP2; Western blot
[2] = molecular target: T1, GST-LDZIP, leucine zipper domain of human RanBP2 (residues 447-483) fused to GST (human) (UniProt P49792); assay: pull-down; GST-fused proteins (0.5-2.2 uM) with CHAPS-solubilized retinal extracts; co-precipitates analysed by Western blot; only the target purified
T1 sequence: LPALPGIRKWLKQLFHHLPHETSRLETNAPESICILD

binding [1]: binds
Substance: Hexokinase type I (HKI) (from UniProt P17710-3) (enzyme)
binding [2]: no binding (tested: 0.5–2.2 μM of GST-fused proteins)
